According to PubChem BioAssay AID504834 (National Center for Advancing Translational Sciences (NCATS), 2011):
The whole screen tested about 320,000 compounds, of which about 22,000 (6.9%) were called active. Inconclusive results, whose numbers are uncertain, are shown with a selection of clear calls. Calls follow the shape of the dose curve; as a rule, active = well fitted inhibition curve with a large enough effect; inconclusive = small, poorly fitted or top-dose-only effect, or another doubt; inactive = no such curve, though single readings can be large or run the other way. Potencies beside an inconclusive call are fits to weak or partial responses and may not hold up.

Assay: Primary qHTS for delayed death inhibitors of the malarial parasite plastid, 96 hour incubation
Settings: P. falciparum luciferase reporter growth; series mostly up to 28.7 µM; activity change, negative = inhibition: at the top concentration
In short: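 Plates of compound plus infected erythrocytes (2% hematocrit, 0.05% parasitemia final) incubate 96 hours, 37 C, 5% CO2. Detection reagent added; reduced luminescence from the parasites' luciferase reporter flags inhibition.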
% is scaled to controls: 0 for no effect and ±100 for the full control effect; potency is read from the fitted curve at half-maximal effect.

Compound	Potency	activity change, negative = inhibition
O=C1C2C3C=CC(CNS(=O)(=O)c4ccccc4[N+](=O)[O-])(O3)C2C(=O)N1c1ccccc1 (centres undefined)	inconclusive: 4.65 µM [inhibitor, partial curve, poor fit]	–
COC(=O)c1cc(S(=O)(=O)N2CCCC2=O)c(Cl)cc1Cl	active: 10.4 µM	–
Cc1cccc2c(N=NC(=O)c3ccc(NS(=O)(=O)c4cccs4)cc3)c(O)[nH]c12	inconclusive: 0.415 µM [inhibitor, full curve, poor fit]	–
O=S(=O)(NCC(c1ccco1)N1CCN(c2ccc(F)cc2)CC1)c1ccc2c(c1)OCCO2 (centres undefined)	inconclusive: 13.1 µM [inhibitor, single point]	–
COc1ccc(OC)c(/C=C/C(=O)N2CCCc3ccccc32)c1	inconclusive: 10.4 µM [inhibitor, single point]	–
O=C(NCCS(=O)(=O)N1CCN(c2ccccc2F)CC1)c1cc(=O)c2ccccc2o1	–	inactive: 178%
CCCN1Cc2cccc(C(=O)N3CCN(c4ccc(F)cc4)CC3)c2C1=O	–	inactive: -9.88%
Cc1ccc2c(c1)c1c(n2C)-c2[nH]ncc2CC1	–	inactive: 43.9%
CC1CCCN(c2ccc(C(=O)NCc3ccc4c(c3)OCO4)cc2[N+](=O)[O-])C1 (centres undefined)	inconclusive: 11.7 µM [inhibitor, single point]	–
Cc1ccc(CCNC(=O)CN(C)S(=O)(=O)c2ccc3c(c2)n(C)c(=O)c(=O)n3C)cc1	active: 9.28 µM	–
CC(=O)c1cccc(NC(=O)C2=CN3CCS(=O)(=O)N=C3C=C2)c1	–	inactive: -13.1%
CCCCNC(=O)CSc1ccc(S(=O)(=O)N2CCOCC2)cn1	inconclusive: 10.4 µM [inhibitor, single point]	–
Cc1ccc2oc(=O)c3cc(C(=O)N4CCN(C(=O)c5ccco5)CC4)sc3c2c1	inconclusive: 9.28 µM [inhibitor, single point]	–
CCOC(=O)C1CCCN(c2nc3ccccc3nc2C(C#N)C(=O)OC(C)COC)C1 (centres undefined)	inconclusive: 13.1 µM [inhibitor, single point]	–
COc1ccc(-c2nnc(SCc3cccnc3)o2)cc1	inconclusive: 18.5 µM [inhibitor, single point]	–
COC(=O)c1ccc(NC(=O)c2cc[n+](Cc3ccccc3)cc2)cc1	–	inactive: 194%
O=C1/C(=C\c2cc3c(cc2Br)OCO3)N2CCC1CC2	inconclusive: 9.28 µM [inhibitor, partial curve, poor fit]	–
Oc1ccc(Br)cc1/C=N/Nc1ncc(-c2ccccc2)cn1	inconclusive: 14.7 µM [inhibitor, single point]	–
COCCCNC(=O)Cn1cc(C(=O)c2cccs2)c2ccccc21	inconclusive: 4.15 µM [inhibitor, single point]	–
C/C(=N\NC(=O)c1cc(-c2ccco2)nc2ccccc12)c1cccnc1	inconclusive: 10.4 µM [inhibitor, partial curve, poor fit]	–
CCN(CC)CCNc1ncnc2c1sc1nc(N3CCOCC3)c3c(c12)CCCC3	inconclusive: 2.33 µM [inhibitor, full curve]	–
Cc1ccc(C(=O)N2CCN(C)CC2)cc1[N+](=O)[O-]	–	inactive: 5.8%
CCCCn1c(=O)[nH]c(=O)c2c1nc(-c1ccc(CC)c([N+](=O)[O-])c1)n2C	inconclusive: 7.38 µM [inhibitor, partial curve, poor fit]	–

Compound	Potency	activity change, negative = inhibition
Cc1cc(CNC(=O)C2CCC(=O)N(Cc3ccccc3F)C2)nn1C (centres undefined)	inconclusive: 18.5 µM [inhibitor, single point]	–
COc1cc(C2c3[nH]c4ccccc4c3CCN2Cc2cn(C)nc2C)ccc1F (centres undefined)	inconclusive: 11.7 µM [inhibitor, partial curve, poor fit]	–
Cc1ccc(NC(=O)Cc2n[nH]c(=S)n2C)cc1	inconclusive: 13.1 µM [inhibitor, single point]	–
COC(=O)CN1C(=O)C(O)(CC(=O)c2ccc(Br)cc2)c2ccccc21 (centres undefined)	–	inactive: 2.41%
Cc1ccc(Cn2ncn(-c3ccccc3)c2=O)cc1	–	inactive: 62.4%
COCCN1C=C(C(=O)OC)C(c2cc(Br)c(OC)c(OC)c2)C(C(=O)OC)=C1	–	inactive: 3.86%
Cc1cc(C)cc(NC(=S)NCCCN2CCOCC2)c1	–	inactive: 2.48%
C=Cc1ccc2c(c1)N(C)C(=C)S2	inconclusive: 14.7 µM [inhibitor, single point]	–
COCCn1c(SCC(=O)c2cccc(OC)c2)nnc1-c1ccco1	active: 13.1 µM	–
CCCCn1c(N)c(N(CCC(C)C)C(=O)COC(=O)c2ccc(CC)cc2)c(=O)[nH]c1=O	inconclusive: 11.7 µM [inhibitor, single point]	–
CCOC(=O)C1CCCN(c2ncnc3c2cnn3-c2ccc(OC)cc2)C1 (centres undefined)	inconclusive: 11.7 µM [inhibitor, single point]	–
CCN(C(=O)CN1C(=O)S/C(=C\c2ccccc2OC)C1=O)C1CCS(=O)(=O)C1 (centres undefined)	inconclusive: 8.28 µM [inhibitor, partial curve]	–
COc1cc(/C=C2/C(=O)NN(c3ccc(F)cc3)C2=O)cc(Cl)c1O	inconclusive: 3.7 µM [inhibitor, partial curve]	–
CC(C)(C)c1ccc(C(=O)NC(=S)Nc2nc3c(s2)CCCC3)cc1	–	inactive: 86.4%
Cc1ccsc1/C=C/c1ccc2ccccc2n1	–	inactive: 175%
COc1ccccc1N1CC(C(=O)OCC(=O)Nc2c(C)cccc2C)CC1=O (centres undefined)	inconclusive: 5.22 µM [inhibitor, partial curve]	–
N#Cc1ccc(C(=O)Nc2nc(-c3cccs3)c(C(=O)C(F)(F)F)s2)cc1	inconclusive: 18.5 µM [inhibitor, single point]	–
CCCCn1c(N)c(N(CC)C(=O)c2ccc([N+](=O)[O-])c(C)c2)c(=O)[nH]c1=O	–	inactive: 0%
Cc1ccc(C(O)CN2C3=NCCN3c3ccccc32)cc1 (centres undefined)	inconclusive: 18.5 µM [inhibitor, single point]	–
Cc1c(N(C(=O)Cc2cccs2)C2(C(=O)NC3CCCC3)CCCCC2)c(=O)n(-c2ccccc2)n1C	inconclusive: 0.928 µM [inhibitor, single point]	–
O=C(Nc1cccc(-c2csc(Nc3cccc(C(F)(F)F)c3)n2)c1)c1ccccc1	inconclusive: 11.7 µM [inhibitor, single point]	–
CC(C)C(NC(=O)c1ccccc1)C(=O)NC1CCCc2ccccc21 (centres undefined)	inconclusive: 8.28 µM [inhibitor, partial curve, poor fit]	–
Cc1ccc(C)c(NC(=O)Cn2ccn(-c3ccc4c(c3)OCO4)c(=O)c2=O)c1	–	inactive: 6.52%

Copied from the list:
`Cc1ccc(CCNC(=O)CN(C)S(=O)(=O)c2ccc3c(c2)n(C)c(=O)c(=O)n3C)cc1` | Potency: active: 9.28 µM
`CCOC(=O)C1CCCN(c2ncnc3c2cnn3-c2ccc(OC)cc2)C1` (centres undefined) | Potency: inconclusive: 11.7 µM [inhibitor, single point]
`COC(=O)c1cc(S(=O)(=O)N2CCCC2=O)c(Cl)cc1Cl` | Potency: active: 10.4 µM

More entries.

Compound	Potency	activity change, negative = inhibition
S=c1nc(-c2ccccc2)[nH]n1-c1ccccc1	inconclusive: 4.15 µM [inhibitor, partial curve, poor fit]	–
O=C(Nc1ccc(Cn2cccn2)cc1)c1ccc(COc2cccc(Br)c2)cc1	inconclusive: 2.94 µM [inhibitor, single point]	–
CCN(CCCNC(=O)C1CCC(=O)N1Cc1ccccc1Cl)c1cccc(C)c1 (centres undefined)	inconclusive: 20.8 µM [inhibitor, partial curve, poor fit]	–
Cc1cc(C)cc(N(CC(=O)NCc2ccc3c(c2)OCO3)C(=O)CCC(=O)Nc2ccccn2)c1	inconclusive: 4.15 µM [inhibitor, single point]	–
CC(OC(=O)c1ccc([N+](=O)[O-])o1)C(=O)Nc1nc(-c2ccc(F)c(F)c2)cs1 (centres undefined)	–	inactive: 1.92%
COc1ccc(-c2cn(-c3ccc(C)cc3C)c(=O)[nH]2)cc1OC	inconclusive: 1.85 µM [inhibitor, single point]	–
CC(NC(=O)c1ccccc1Cl)C1COc2ccccc2O1 (centres undefined)	–	inactive: -0.318%
CC1=C(C#N)C(C(F)(F)F)(C(F)(F)F)N=C(c2ccco2)N1	active: 8.28 µM	–
CSC1=C(C#N)C(c2ccccc2Cl)C2=C(N1)c1ccccc1C2=O (centres undefined)	inconclusive: 0.0029 µM [inhibitor, full curve, poor fit]	–
COc1cccc(NC(=O)CSc2nnc(Cn3cnc([N+](=O)[O-])n3)n2C)c1	inconclusive: 7.38 µM [inhibitor, partial curve]	–
COCCNC(=O)/C(C#N)=C/c1nc(N(C)C)n(-c2ccc(F)cc2)c1Cl	inconclusive: 5.22 µM [inhibitor, single point]	–
NC(=O)c1c(NC(=O)Cn2cc([N+](=O)[O-])cn2)sc2c1CCCC2	inconclusive: 5.22 µM [inhibitor, partial curve]	–
COCCC(=O)N1CCC(Oc2ccc(C(=O)NCCc3ccccn3)cc2)CC1	–	inactive: 26.1%
Cc1ccn(CCC(=O)N2CCCC(CCC(=O)N3CCN(c4ccccn4)CC3)C2)n1 (centres undefined)	–	inactive: -7.29%
O=C(CSc1nc2ccccc2s1)NNC(=O)Nc1ccc(Cl)c(Cl)c1	–	inactive: 18%
COc1cccc(-c2noc(CCC(=O)NC3CCCC3)n2)c1	–	inactive: -9.91%
COC(=O)c1ccc(NC(=O)CCc2c(C)nc3ncnn3c2C)cc1	–	inactive: 13.3%
COc1ccc(C2SCC(=O)Nc3c2c(C)nn3-c2ccccc2)cc1 (centres undefined)	–	inactive: -7.03%
Cc1[nH]n(-c2ccccc2)c(=O)c1C(c1cccc([N+](=O)[O-])c1)c1c(C)[nH]n(-c2ccccc2)c1=O	inconclusive: 13.1 µM [inhibitor, single point]	–
O=C(CSc1nncs1)NC(=O)Nc1ccc2c(c1)OCCO2	–	inactive: 166%
Cc1cccc(NC(=O)c2nc[nH]c2C(=O)N2CCC(C)CC2)c1	inconclusive: 14.7 µM [inhibitor, single point]	–
O=c1c2ccccc2c(-c2ccc(Br)cc2)nn1Cc1ccccc1	inconclusive: 4.15 µM [inhibitor, partial curve, poor fit]	–
C/C(=C/C(=O)O)C(=O)Nc1cccc(C(F)(F)F)c1	–	inactive: 29%
